The experiment deals with T1, family with sequence similarity 64, member A (FAM64A) (human) (UniProt Q9BSJ6).
T1 sequence: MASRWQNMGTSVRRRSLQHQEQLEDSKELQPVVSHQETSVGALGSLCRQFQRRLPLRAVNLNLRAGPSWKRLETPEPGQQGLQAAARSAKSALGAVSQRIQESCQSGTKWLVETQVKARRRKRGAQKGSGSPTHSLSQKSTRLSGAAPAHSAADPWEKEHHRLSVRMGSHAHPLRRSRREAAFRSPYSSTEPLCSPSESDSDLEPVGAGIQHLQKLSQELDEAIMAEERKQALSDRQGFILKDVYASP
Briefly: affinity purification with mass spectrometry; Co-IP of FAM64A from HNSCC cells; immunocomplexes separated by SDS-PAGE and silver stained; candidate bands digested with trypsin and identified by LC-MS/MS.

Here are results for 1 molecule from publication PMC9091245.

These are yes or no findings as the source states them, for the method shown. Binding seen in cells or lysates may run through a third protein. These calls come from enrichment with a bait or labelling near it, and not all partners need be listed.

B1: forkhead box protein M1 (FOXM1) (protein, UniProt Q08050 1-763)
chain: MKTSPRRPLILKRRRLPLPVQNAPSETSEEEPKRSPAQQESNQAEASKEVAESNSCKFPAGIKIINHPTMPNTQVVAIPNNANIHSIITALTAKGKESGSSGPNKFILISCGGAPTQPPGLRPQTQTSYDAKRTEVTLETLGPKPAARDVNLPRPPGALCEQKRETCADGEAAGCTINNSLSNIQWLRKMSSDGLGSRSIKQEMEEKENCHLEQRQVKVEEPSRPSASWQNSVSERPPYSYMAMIQFAINSTERKRMTLKDIYTWIEDHFPYFKHIAKPGWKNSIRHNLSLHDMFVRETSANGKVSFWTIHPSANRYLTLDQVFKPLDPGSPQLPEHLESQQKRPNPELRRNMTIKTELPLGARRKMKPLLPRVSSYLVPIQFPVNQSLVLQPSVKVPLPLAASLMSSELARHSKRVRIAPKVLLAEEGIAPLSSAGPGKEEKLLFGEGFSPLLPVQTIKEEEIQPGEEMPHLARPIKVESPPLEEWPSPAPSFKEESSHSWEDSSQSPTPRPKKSYSGLRSPTRCVSEMLVIQHRERRERSRSRRKQHLLPPCVDEPELLFSEGPSTSRWAAELPFPADSSDPASQLSYSQEVGGPFKTPIKETLPISSTPSKSVLPRTPESWRLTPPAKVGGLDFSPVQTSQGASDPLPDPLGLMDLSTTPLQSAPPLESPQRLLSSEPLDLISVPFGNSSPSDIDVPKPGSPEPQVSGLAANRSLTEGLVLDTMNDSLSKILLDISFPGLDEDPLGPDNINWSQFIPELQ
In the case of B1, the binding result is listed as “binds”.
